According to publication doi:10.1101/2024.05.31.596839:

Target: Tejas (Drosophila)
Experiment: ReLo

B2: Krimper MUT (protein, UniProt A1ZAC4 1-746)
chain: MNLEDISMIMKLFDSNMHKLQGNLRSYQTEMHQIHKELTEKLSHADLLYRSLIPLHDHLVASLSEVNAHVMKLNVQLHINRQSVRLGDYEYYEKSIDNPYSSIRSGLQAIEKPGCAEAICQSSKPAFVECLPSSTSEEVPVVAVQEASSTNQLDAISVVNENLSEERDATPQPLAVSKNMEETMPSNPFHEQLEGSLEEIPVGSKIVVETEKANNPVRSEASAPATSDNQSLLAAKQGTQTIGTGICNKISKSTINMPNNWQLENPTEVTAASIEKVNKLPKSPRNRFLLPPKGGTETTRRDIYNQILKDMAAFPENTIVTAVLASVDVTDNCAYVAKWDESSDRIKKVLQRQLPLQELDQLPDYGDIFAVLDSINNIITRITINSSSAGGGYDAYLIDFGEHIHFDGNETIFKLPDDIKRLPAQAIRCDLINCDIANMHCFVNTYIKIRVHENNNSTLVAEPVIDRLSRPTKTNTTKYPAGETEDDMAMENEEDESTSDPLKAVLGFRPKDEQRICRHYDPKLNGCFKGNNCRFAHEPFAPNGATKDVELARALPETIFDTTVHFEIGSIVGILITFINGPTEVYGQFLDGSPPLVWDKKDVPENKRTFKSKPRLLDIVLALYSDGCFYRAQIIDEFPSEYMIFYVDYGNTEFVPLSCLAPCENVDSFKPHRVFSFHIEGIVRSKNLTHQKTIECIEYLKSKLLNTEMNVHLVQRLPDGFLIRFLDDWKYIPEQLLQRNYAQVSQ
binding: binds

B4: KrimpΔ462-552 (protein, UniProt A1ZAC4)
chain: MNLEDISMIMKLFDSNMHKLQGNLRSYQTEMHQIHKELTEKLSHADLLYRSLIPLHDHLVASLSEVNAHVMKLNVQLHINRQSVRLGDYEYYEKSIDNPYSSIRSGLQAIEKPGCAEAICQSSKPAFVECLPSSTSEEVPVVAVQEASSTNQLDAISVVNENLSEERDATPQPLAVSKNMEETMPSNPFHEQLEGSLEEIPVGSKIVVETEKANNPVRSEASAPATSDNQSLLAAKQGTQTIGTGICNKISKSTINMPNNWQLENPTEVTAASIEKVNKLPKSPRNRFLLPPKGGTETTRRDIYNQILKDMAAFPENTIVTAVLASVDVTDNCAYVAKWDESSDRIKKVLQRQLPLQELDQLPDYGDIFAVLDSINNIITRITINSSSAGGGYDAYLIDFGEHIHFDGNETIFKLPDDIKRLPAQAIRCDLINCDIANMHCFVNTYIKIRVHENNNSTLVARALPETIFDTTVHFEIGSIVGILITFINGPTEVYGQFLDGSPPLVWDKKDVPENKRTFKSKPRLLDIVLALYSDGCFYRAQIIDEFPSEYMIFYVDYGNTEFVPLSCLAPCENVDSFKPHRVFSFHIEGIVRSKNLTHQKTIECIEYLKSKLLNTEMNVHLVQRLPDGFLIRFLDDWKYIPEQLLQRNYAQVSQ
binding: no binding

Further lines, results first:

binding: no binding
B1: Mael MUT (ReLo) (protein, UniProt Q9VNS0 1-459)
chain: MAPKKHSGFMMFVNEWRNRNAEGRRMTLAQAVSHCGTIWEKMNTQQRGPYNSGGKDANVAQRAKRESSNGHGQVDKAQREATESLMDMKRTIERLVLNAKMSHDLENAKFVFVAFNYFTKALTTDVYVPAEFAACEYSLKEGIRSIYSTMIDPGQIIFGQGSDALLHSSTTHDLPLPPNALGEKNMTKLYRNIVDYLSKCQGKGKTLVVFTPAENITMVKSCFRYLECDDDFRDGGEKIQVFDIQYLLFILKKEVMNVADLNDEKINKFATDAFFKKDFFEFTAGIACQYHEDNDRTKYCTQSMVTRWAYTFTDFMCGDLAITVQPGKHIPAQTKPNYLIISSYASSLDHESSFDSFYSLPGSGVKKESQPEACSLSSSRLSVASSSYKPIDHTSFAANLNEVSEFPSLGMRNSSKHHGIAASAQREWNARNLPTHSRLIRKESDNDESENGADGKLKK

binding: no binding
B3: Maelstrom with the TIR deleted (ReLo) (domain or fragment, UniProt Q9VNS0 1-412)
chain: MAPKKHSGFMMFVNEWRNRNAEGRRMTLAQAVSHCGTIWEKMNTQQRGPYNSGGKDANVAQRAKRESSNGHGQVDKAQREATESLMDMKRTIERLVLNAKMSHDLENAKFVFVAFNYFTKALTTDVYVPAEFAACEYSLKEGIRSIYSTMIDPGQIIFGQGSDALLHSSTTHDLPLPPNALGEKNMTKLYRNIVDYLSKCQGKGKTLVVFTPAENITMVKSCFRYLECDDDFRDGGEKIQVFDIQYLLFILKKEVMNVADLNDEKINKFATDAFFKKDFFEFTAGIACQYHEDNDRTKYCTQSMVTRWAYTFTDFMCGDLAITVQPGKHIPAQTKPNYLIISSYASSLDHESSFDSFYSLPGSGVKKESQPEACSLSSSRLSVASSSYKPIDHTSFAANLNEVSEFPSLGMR

These are yes or no findings as the source states them, for the method shown. Binding can be weak; no strength is given. Each block holds one binder with its values, some of them ahead of it.
